Results from article PMC3050841.
No constants are given. Whether binding was seen depends on the method and setting. For some of these results: Binding seen in cells or lysates may run through a third protein. Some results given as binding are weak or reduced against the parent protein; the word gives no strength.

Sequences of proteins named here, by UniProt entry; tags and fusion partners are left off. A change or cut given only in a name is not applied to a line headed by its entry.
UniProt P12814: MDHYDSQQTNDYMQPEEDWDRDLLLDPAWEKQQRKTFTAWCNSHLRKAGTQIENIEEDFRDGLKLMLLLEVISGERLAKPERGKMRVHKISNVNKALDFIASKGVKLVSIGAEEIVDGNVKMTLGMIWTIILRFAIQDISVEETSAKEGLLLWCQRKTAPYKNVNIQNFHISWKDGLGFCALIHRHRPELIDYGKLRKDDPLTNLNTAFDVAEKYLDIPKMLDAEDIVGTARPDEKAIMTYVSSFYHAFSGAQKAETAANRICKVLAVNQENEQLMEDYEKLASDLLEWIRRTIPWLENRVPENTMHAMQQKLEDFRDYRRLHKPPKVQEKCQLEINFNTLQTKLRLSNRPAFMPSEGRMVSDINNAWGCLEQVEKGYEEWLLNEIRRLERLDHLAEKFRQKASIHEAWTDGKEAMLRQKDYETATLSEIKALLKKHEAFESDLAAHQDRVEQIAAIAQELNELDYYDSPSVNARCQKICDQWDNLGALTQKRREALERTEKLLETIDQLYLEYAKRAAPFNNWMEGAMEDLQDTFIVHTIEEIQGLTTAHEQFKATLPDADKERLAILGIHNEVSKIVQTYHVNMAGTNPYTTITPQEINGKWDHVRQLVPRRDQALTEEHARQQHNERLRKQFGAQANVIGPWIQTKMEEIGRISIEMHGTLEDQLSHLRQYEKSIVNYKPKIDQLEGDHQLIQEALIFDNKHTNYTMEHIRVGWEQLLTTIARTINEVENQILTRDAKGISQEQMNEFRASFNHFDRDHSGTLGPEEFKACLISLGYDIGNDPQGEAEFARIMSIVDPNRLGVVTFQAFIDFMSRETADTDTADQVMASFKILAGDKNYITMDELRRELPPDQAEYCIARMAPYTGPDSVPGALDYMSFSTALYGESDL
UniProt P05556: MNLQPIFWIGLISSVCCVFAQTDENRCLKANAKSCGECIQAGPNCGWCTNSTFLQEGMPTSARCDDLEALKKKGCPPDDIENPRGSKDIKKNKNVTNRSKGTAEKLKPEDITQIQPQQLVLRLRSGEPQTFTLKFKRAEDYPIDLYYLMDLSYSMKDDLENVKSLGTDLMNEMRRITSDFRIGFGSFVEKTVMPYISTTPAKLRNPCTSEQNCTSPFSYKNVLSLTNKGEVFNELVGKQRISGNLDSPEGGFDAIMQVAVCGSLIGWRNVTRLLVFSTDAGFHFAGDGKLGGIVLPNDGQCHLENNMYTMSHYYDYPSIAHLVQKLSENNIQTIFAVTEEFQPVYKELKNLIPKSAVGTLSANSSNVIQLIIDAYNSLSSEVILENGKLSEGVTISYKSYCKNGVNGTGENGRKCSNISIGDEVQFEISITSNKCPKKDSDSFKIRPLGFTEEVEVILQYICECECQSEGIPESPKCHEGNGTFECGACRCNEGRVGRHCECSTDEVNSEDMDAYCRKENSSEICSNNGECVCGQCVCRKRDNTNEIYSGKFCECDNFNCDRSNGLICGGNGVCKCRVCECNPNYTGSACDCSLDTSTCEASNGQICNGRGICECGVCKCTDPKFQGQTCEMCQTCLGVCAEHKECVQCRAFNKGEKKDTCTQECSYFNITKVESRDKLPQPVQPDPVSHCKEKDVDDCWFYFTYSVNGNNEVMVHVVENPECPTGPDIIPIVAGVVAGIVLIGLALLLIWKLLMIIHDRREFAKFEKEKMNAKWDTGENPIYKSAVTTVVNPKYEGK

How the values were obtained:
[1] = target: T1, HAMLET (Human Alpha-lactalbumin Made LEthal to Tumor cells) (human) (UniProt P00709); test: co-IP; A549 cells treated with HAMLET (15 minutes, 35 µM), NP-40 lysis buffer; precipitation with anti-α-lactalbumin antibodies and Protein G-Sepharose, 4°C overnight; blots for α-actinin-4 and α-actinin-1
T1 sequence: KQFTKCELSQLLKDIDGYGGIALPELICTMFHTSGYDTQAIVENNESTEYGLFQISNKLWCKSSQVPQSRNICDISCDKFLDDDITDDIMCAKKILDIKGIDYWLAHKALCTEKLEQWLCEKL

α-actinin-4 (human) [2] = target: α-actinin-4 (human) (UniProt O43707); test: co-IP; total extracts of adherent A549 cells, untreated or HAMLET-treated (35 µM, 3 hours), Brij 96 lysis buffer; precipitation with anti-α-actinin-4 antibodies; blot for β1 integrin
α-actinin-4 (human) [3] = target: α-actinin-4 (human) (UniProt O43707); test: far-Western, overlay or dot blot; A549 membrane fraction (10 µg) separated by SDS-PAGE and blotted onto PVDF; overlaid overnight with 142 µM HAMLET in NN8 buffer pH 8.7; bound HAMLET detected with anti-bovine α-lactalbumin antibodies; band identified by MALDI-TOF; only the binder purified

| Molecule | binding [1] | also measured |
| --- | --- | --- |
| α-actinin-1 (from UniProt P12814 1-892) | binds |  |
| α-actinin-4 (from UniProt O43707 1-911) | binds |  |
| β1 integrin (from UniProt P05556 21-798) (receptor) |  | binding (α-actinin-4 (human) [2]): binds |
| HAMLET (Human Alpha-lactalbumin Made LEthal to Tumor cells) (protein, UniProt P00709 20-142) KQFTKCELSQLLKDIDGYGGIALPELICTMFHTSGYDTQAIVENNESTEYGLFQISNKLWCKSSQVPQSRNICDISCDKFLDDDITDDIMCAKKILDIKGIDYWLAHKALCTEKLEQWLCEKL |  | binding (α-actinin-4 (human) [3]): binds |
